No constants are given. Whether binding was seen depends on the method and setting. Some results given as binding are weak or reduced against the parent protein; the word gives no strength.
Assays:
Assay in all cases: membrane recruitment on a supported lipid bilayer
[1] = biological target: MinD (cell-free expressed from the minD-minE bi-cistronic DNA template) (E. coli) (UniProt P0AEZ3)
[2] = biological target: MinE (cell-free expressed from the minD-minE bi-cistronic DNA template) (E. coli) (UniProt P0A734)
[3] = biological target: T1, FtsA (cell-free expressed from the ftsA-minD-minE tri-cistron DNA template) (E. coli) (UniProt P0ABH0)
T1 sequence: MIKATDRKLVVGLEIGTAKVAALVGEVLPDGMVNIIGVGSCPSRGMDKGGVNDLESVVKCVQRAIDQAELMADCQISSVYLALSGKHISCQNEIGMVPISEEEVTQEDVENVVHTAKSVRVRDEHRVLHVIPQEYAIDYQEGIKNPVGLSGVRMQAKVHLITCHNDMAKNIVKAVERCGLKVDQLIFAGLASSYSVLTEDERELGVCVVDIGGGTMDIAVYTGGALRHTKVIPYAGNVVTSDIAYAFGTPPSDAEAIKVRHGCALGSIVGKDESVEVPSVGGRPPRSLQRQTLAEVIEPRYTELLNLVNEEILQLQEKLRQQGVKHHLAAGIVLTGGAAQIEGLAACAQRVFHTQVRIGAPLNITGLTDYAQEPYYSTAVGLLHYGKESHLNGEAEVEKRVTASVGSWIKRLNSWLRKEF

Chains of the proteins cited; added tags and fusions are not shown.
UniProt P0AEZ3: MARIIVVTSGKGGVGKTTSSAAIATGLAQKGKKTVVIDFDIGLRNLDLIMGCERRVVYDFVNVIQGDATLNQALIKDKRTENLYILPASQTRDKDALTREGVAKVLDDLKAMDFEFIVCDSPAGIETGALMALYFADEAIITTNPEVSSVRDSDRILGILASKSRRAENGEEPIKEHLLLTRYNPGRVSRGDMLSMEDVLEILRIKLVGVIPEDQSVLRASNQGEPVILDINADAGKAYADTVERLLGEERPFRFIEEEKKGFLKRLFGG
UniProt P0A9A6: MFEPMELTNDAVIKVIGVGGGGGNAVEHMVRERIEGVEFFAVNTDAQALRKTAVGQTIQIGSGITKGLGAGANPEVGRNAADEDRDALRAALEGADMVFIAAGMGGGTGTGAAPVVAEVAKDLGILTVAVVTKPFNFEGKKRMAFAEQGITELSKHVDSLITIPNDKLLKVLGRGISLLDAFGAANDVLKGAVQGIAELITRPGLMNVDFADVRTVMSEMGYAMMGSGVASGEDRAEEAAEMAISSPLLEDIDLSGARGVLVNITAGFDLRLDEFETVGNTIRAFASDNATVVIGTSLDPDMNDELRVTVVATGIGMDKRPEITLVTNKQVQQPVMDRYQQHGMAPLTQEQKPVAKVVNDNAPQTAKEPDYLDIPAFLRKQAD

- binding [1]: no binding (tested: 3 μM FtsZ-A647)
- binding [2]: no binding (tested: 3 μM FtsZ-A647)
- binding [3]: binds
Substance: FtsZ-A647 (FtsZ conjugated to the AlexaFluor647 fluorophore) (from UniProt P0A9A6 1-383)
